No constants are given. Whether binding was seen depends on the method and setting. For part of these data: Binding seen in cells or lysates may run through a third protein. Some results given as binding are weak or reduced against the parent protein; the word gives no strength. Sequences can lack the tags named with a protein. Values belong to the molecule of their own block, whether it stands above or below them.
Key:
[1] = biological target: T1, Myc-Plk4-FL (Myc-tagged Plk4 full length) (UniProt O00444); assay: co-IP; COS-7 cells co-expressing the tagged proteins; lysis buffer 50mM HEPES, 100mM KCl, 0,5% NP40; immunoprecipitation with anti-Myc antibody on Dynabeads protein A, 3 hours; Western blot
T1 sequence: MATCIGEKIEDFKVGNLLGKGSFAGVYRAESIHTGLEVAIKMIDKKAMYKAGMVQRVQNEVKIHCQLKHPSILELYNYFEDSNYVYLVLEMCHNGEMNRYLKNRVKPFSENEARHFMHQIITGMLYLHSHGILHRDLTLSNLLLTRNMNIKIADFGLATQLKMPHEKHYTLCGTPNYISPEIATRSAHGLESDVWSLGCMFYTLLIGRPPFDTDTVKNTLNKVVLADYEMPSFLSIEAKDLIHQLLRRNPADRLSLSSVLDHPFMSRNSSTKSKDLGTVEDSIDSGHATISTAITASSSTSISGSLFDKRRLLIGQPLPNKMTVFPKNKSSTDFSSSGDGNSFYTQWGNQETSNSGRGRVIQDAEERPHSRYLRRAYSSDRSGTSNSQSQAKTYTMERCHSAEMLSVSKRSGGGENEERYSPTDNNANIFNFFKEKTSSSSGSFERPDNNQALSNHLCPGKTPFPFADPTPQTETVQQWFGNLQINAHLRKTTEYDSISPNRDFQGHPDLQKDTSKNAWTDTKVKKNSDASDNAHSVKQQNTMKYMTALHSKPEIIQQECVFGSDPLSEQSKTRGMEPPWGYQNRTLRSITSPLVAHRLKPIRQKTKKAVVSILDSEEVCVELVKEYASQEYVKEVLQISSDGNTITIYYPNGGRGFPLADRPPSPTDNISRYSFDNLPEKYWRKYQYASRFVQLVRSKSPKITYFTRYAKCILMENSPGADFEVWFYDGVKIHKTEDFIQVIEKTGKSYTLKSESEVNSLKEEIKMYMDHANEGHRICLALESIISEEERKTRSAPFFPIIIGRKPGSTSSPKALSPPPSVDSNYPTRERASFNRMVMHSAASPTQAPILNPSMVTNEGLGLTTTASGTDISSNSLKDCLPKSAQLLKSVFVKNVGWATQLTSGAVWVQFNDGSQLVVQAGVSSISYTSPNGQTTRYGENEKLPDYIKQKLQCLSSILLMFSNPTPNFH

Chains of the proteins cited; added tags and fusions are not shown. Lines headed by an entry give the natural chain unless they say otherwise; changes in a name come on top. Residues count along the entry.
UniProt P21127, residues 357-795: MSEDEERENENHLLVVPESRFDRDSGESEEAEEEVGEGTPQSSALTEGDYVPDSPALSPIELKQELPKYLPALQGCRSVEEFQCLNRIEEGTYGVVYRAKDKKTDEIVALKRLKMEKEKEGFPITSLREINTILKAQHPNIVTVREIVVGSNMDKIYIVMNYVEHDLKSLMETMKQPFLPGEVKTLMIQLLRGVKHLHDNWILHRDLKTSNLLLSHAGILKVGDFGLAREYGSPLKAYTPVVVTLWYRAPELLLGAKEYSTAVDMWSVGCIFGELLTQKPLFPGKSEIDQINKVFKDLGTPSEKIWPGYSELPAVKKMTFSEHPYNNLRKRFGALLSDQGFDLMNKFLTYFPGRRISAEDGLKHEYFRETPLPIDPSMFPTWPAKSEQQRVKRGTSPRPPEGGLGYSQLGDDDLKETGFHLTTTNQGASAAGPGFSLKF

GFP-CDK11^p58 = GFP-CDK11^p58 (UniProt P21127); assay: co-IP; COS-7 cells co-expressing the tagged proteins; lysis buffer 50mM HEPES, 100mM KCl, 0,5% NP40; immunoprecipitation with anti-GFP antibody on Dynabeads protein A, 3 hours; Western blot
[2] = biological target: MBP-CDK11^p58 (Maltose-Binding Protein-tagged CDK11^p58) (UniProt P21127); assay: pull-down; 10µg MBP-CDK11^p58 immobilised on amylose, incubated with 5µg purified Plk4-V5-(His)6 in PBS, 0,1% triton X-100, 0,1% NP40, 1h at 4°C; 3 washes; anti-V5 Western blot; both purified

binding [1]: binds
Molecule: GFP-CDK11^p58 (from UniProt P21127-12 1-439) (enzyme)

binding (GFP-CDK11^p58): binds
B1: Myc-Plk4-FL (Myc-tagged Plk4 full length) (enzyme, UniProt O00444 1-970)
chain: T1 sequence

binding [2]: binds
B2: Plk4-V5-(His)6 (enzyme, UniProt O00444 1-970)
chain: T1 sequence

Source: PMC3031510
